Measurements reported in PubChem BioAssay AID1259300 (Sanger Institute, 2017).
Purpose: 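Kinase and colorectal-mutated gene knock-downs lowering HCT15 viability or boosting drug effects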 (primary screen). Cell system: HCT15 colorectal cancer cells. Reagent: siRNA pool against human genes. Conditions: anchor drug or DMSO vehicle added 24 h after seeding: BYL719 1 µM, cetuximab 5 µg/ml, trametinib 10 nM; drug doses chosen to barely affect viability alone. Read-out: 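Cell viability after knock-down, as fraction of non-targeting pool wells averaged over replicates, plus robust z-score for knock-down alone; synergy score per drug (BYL719 1 µM, cetuximab 5 µg/ml, trametinib 10 nM)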. Direction: viability z-score, siRNA alone: higher = more viable cells after knock-down. Hit rule: 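a knock-down without drug that drives the robust viability z-score under -3 is active, i.e. essential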. Meaning of the calls: active = essential: knock-down alone lowers viability (z below -3); inactive = no strong viability loss with knock-down alone.
Shown is one part, drawn at random, of 794 reagents tested. In the full data, 18 (2.3%) were called active. 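Calls rest on knock-down alone, not drug synergy; depositor treated synergy scores above 0.15 as synergistic; drug doses alone had little viability effect.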 Entries without a mark were called inactive. Not all columns of the deposit are shown. Not stated in the record: the amount of reagent, the time to read-out.

| gene symbol | viability z-score, siRNA alone |
| --- | --- |
| MAPK9 | 0.0192 |
| PRKDC | -1.93 |
| CDKN2C | 0.625 |
| RIOK2 | -0.113 |
| PRKAA2 | 0.625 |
| ABL2 | 0.615 |
| TAB1 | -0.0575 |
| NEK10 | 0.625 |
| CAMK2A | -0.168 |
| PIM2 | 0.625 |
| SKAP1 | 0.625 |
| PRKCB | 0.625 |
| FLT3 | 0.625 |
| WEE1 | -2.33 |
| EFNA3 | -0.169 |
| MAP3K10 | -0.0972 |

Records listed so far whose target name starts with P or p:
| gene symbol | viability z-score, siRNA alone |
| --- | --- |
| PRKDC | -1.93 |
| PRKAA2 | 0.625 |
| PIM2 | 0.625 |
| PRKCB | 0.625 |

Further records:
| gene symbol | viability z-score, siRNA alone |
| --- | --- |
| GALK1 | -1.43 |
| EIF2AK1 | 0.625 |
| NME4 | 0.625 |
| EPHB6 | 0.625 |
| MYLK4 | 0.625 |
| MAP3K6 | 0.625 |
| NTRK1 | 0.625 |
| BRWD1 | 0.625 |
| IP6K1 | 0.625 |
| MAPK11 | 0.189 |
| PIK3CB | -0.179 |
| DCLK3 | 0.625 |
| ADPGK | 0.58 |
| PIP4K2C | -2.45 |
| BMP2K | 0.625 |
| PGK2 | 0.625 |
| RUNX1 | 0.232 |
| VRK1 | -1.39 |
| IRAK3 | -1.67 |
| PCBP1 | -0.228 |
| PFKFB2 | 0.625 |
| MET | 0.625 |
| TGFBR1 | -0.618 |
| RPS6KA6 | 0.625 |
| CDKN1C | -0.23 |
| RIOK1 | -0.388 |
| FBXW7 | 0.625 |
| GUCY2F | 0.625 |
| RPS6KA3 | 0.625 |
| MYO3A | 0.625 |
| ALPK3 | 0.224 |
| MAP3K19 | -1.03 |
| CAMK1G | -1.81 |
| ATP23 | 0.625 |
